# Record: PubChem BioAssay AID504786 (Drosophila RNAi Screening Center, 2011)
# Test: 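Fly genes required for HIF-dependent transcription when hypoxia is mimicked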 (primary screen)
# Cell system: Drosophila S2 cells with a stable HIF luciferase reporter
# Knock-down reagent: long dsRNA against Drosophila genes, about 0.2 µg dsRNA per well of a 384-well plate
# Time to read-out: three days of knock-down, then 20 h of DFO before reading
# Treatment: desferrioxamine (DFO) at 100 µM, an iron chelator that mimics hypoxia, for 20 h
# Read-out: 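HIF reporter luminescence in cells given 100 µM DFO for 20 h, using the mouse ldh-a hypoxia-response element, scored as per-plate z-scores; higher means greater loss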
# Direction: z-score: higher = stronger loss of HIF reporter signal
# In all, the deposit lists about 21,000 reagents; this is a random part of those with a known target gene and a result. 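Primary screen; positive scores mean lost reporter signal, so the sign may be inverted from the usual convention.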 A plus sign joins genes that one reagent is predicted to hit.
gene,DRSC id,"z-score, replicate 1","z-score, replicate 2","z-score, replicate 3","z-score, replicate 4"
crok,DRSC02593,-0.3,-0.3,,
CG4455,DRSC01983,-0.4,-0.5,,
Bet3,DRSC10388,-0.5,-0.7,,
CG14826,DRSC10197,-0.4,-0.4,,
CG3706,DRSC18649,-0.4,-0.3,,
Cyp304a1,DRSC16623,-0.1,0,,
TwdlO,DRSC16043,0.1,-0.1,,
Nak,DRSC03379,-0.3,-0.2,,
CG32248,DRSC08102,0.3,0,,
eater,DRSC15969,-0.4,-0.9,-0.1,-0.4
CG31792,DRSC02604,-0.3,-0.1,,
CG2059,DRSC18203,-0.2,-0.5,,
CG31810,DRSC01560,-0.6,0.5,,
CG7222,DRSC07019,-0.4,-0.5,,
CG5003,DRSC15694,-0.1,0,,
Dhc16F,DRSC20242,-0.2,0,,
NT5E-2,DRSC06893,-0.3,-0.5,,
lncRNA:CR42862,DRSC08348,0.4,0.3,,
CG12540,DRSC19471,-0.2,-0.2,,
CG4360,DRSC15566,-0.2,-0.3,,
Gsc,DRSC00755,0,-0.1,,
NimC2,DRSC01881,-0.1,-0.5,,
CG3106,DRSC18279,-0.3,-0.3,,
CG11597,DRSC09847,-0.1,0.4,,
CG18324,DRSC06721,-0.4,-0.5,,
ihog,DRSC03157,-0.3,-0.7,,
CG33158,DRSC09708,-0.4,-0.4,,
CG33158,DRSC09709,-0.2,-0.4,,
CG33158,DRSC10438,-0.2,-0.5,,
Taf12L,DRSC00467,-0.2,-0.1,,
CG17129,DRSC08508,-0.2,0,,
PIG-O,DRSC06123,-0.2,0.2,,
TTLL6B,DRSC15932,-0.1,-0.8,,
Ref2,DRSC02563,-0.3,-0.2,,
bur,DRSC03163,-0.4,-0.7,,
Acsx3,DRSC14309,-0.3,-0.3,,
CG33267,DRSC09120,-0.2,-0.5,,
Tctp,DRSC15649,-0.2,-0.1,,
CG11037,DRSC11631,-0.3,-0.1,,
CG14983,DRSC08441,-0.3,-0.5,,
Upf2,DRSC18218,-0.3,-0.2,,
CG15120,DRSC06542,-0.1,-0.4,,
Taf2,DRSC11298,0.3,1.1,,
Adgf-B,DRSC10568,-0.2,-0.7,,
CG6034,DRSC10572,-0.1,-0.4,,
betaNACtes4,DRSC19801,-0.3,-1.2,,
CG12155,DRSC17826,0.2,0.3,,
fzr,DRSC18781,-0.4,0,,
CG10996,DRSC19363,-0.3,0.1,,
Chd64,DRSC08649,-0.2,-0.1,,
Flacc,DRSC20040,-0.5,-0.2,,
Ccdc58,DRSC10218,-0.3,-0.3,,
CG17917,DRSC12570,-0.3,-0.1,,
E(spl)m5-HLH,DRSC16695,-0.4,-0.4,,
CG3649,DRSC04400,-0.3,-0.3,,
CG11562,DRSC00316,-0.3,-0.6,,
shg,DRSC04714,-0.3,-0.3,,
CG2269,DRSC06833,-0.4,0.4,,
CG12084,DRSC08247,-0.3,0.1,,
E(Pc),DRSC05281,1.7,1.9,,
E(Pc),DRSC07408,1.6,2,,
trr,DRSC18845,0,0.4,,
Su(var)2-10,DRSC07721,-0.7,-1.3,,
CheA84a,DRSC12669,0,0,,
CG17154,DRSC10253,-0.3,-0.6,,
Nup98-96,DRSC14209,2,3.6,,
Nup98-96,DRSC14210,4.6,4.1,,
CG30411,DRSC04004,-0.2,-0.3,,
NO66,DRSC18252,-0.1,-0.1,,
CG42286 (retired record),DRSC14357,0,0.4,,
Nadk1a,DRSC05431,-0.2,-0.2,,
Nadk1a,DRSC06963,-0.5,-0.7,,
CG8260,DRSC20098,-0.2,-0.6,,
CR15821,DRSC08481,-0.3,-0.1,,
CG10332 (retired record) + IM18,DRSC04064,-0.2,-0.2,,
CG11041,DRSC06025,-0.2,-0.4,,
CG17751,DRSC15261,-1.3,-0.3,,
mio,DRSC00692,0.9,0.6,,
CG7329,DRSC03046,-0.1,-0.1,,
CG42319,DRSC06645,-0.2,-0.4,,
CG42319,DRSC06646,-0.3,0,,
trus,DRSC15772,-0.3,0,,
DIP-zeta,DRSC02203,-0.3,-0.5,,
DIP-zeta,DRSC02204,-0.4,-0.4,,
DIP-zeta,DRSC02205,0.1,-0.2,,
CG13130 (retired record),DRSC02226,0.3,0.3,,
Pitslre,DRSC11874,-0.2,1.4,,
CG12446,DRSC20618,-0.2,-0.3,,
Npc2a,DRSC00698,0.1,0,,
CG15456,DRSC20527,-0.2,-0.4,,
Buffy,DRSC05957,-0.5,0,,
CG6420,DRSC16035,-0.3,0.2,,
Lime,DRSC06752,-0.2,-0.4,,
CG8534,DRSC16439,-0.3,-0.5,,
Prosbeta5R2,DRSC01617,-0.3,0,,
PolA1,DRSC16640,0.1,0.9,,
Marf,DRSC18329,0.7,0.8,,
PGRP-SB2,DRSC11092,-0.2,0.4,,
CG5500,DRSC15820,-0.3,0.1,,
Ir60b,DRSC04217,-0.2,-0.2,,
CG32284,DRSC08025,-0.3,0.1,,
Ipp,DRSC16718,-0.1,0.1,,
KFase,DRSC03258,-0.2,-0.6,,
Rpn2,DRSC16839,6.1,5.8,,
Gbs-76A,DRSC11081,-0.3,-0.5,,
CCHa2,DRSC14835,-0.4,1,-0.4,-0.4

Already shown: entries from further up.
gene,DRSC id,"z-score, replicate 1","z-score, replicate 2","z-score, replicate 3","z-score, replicate 4"
Ref2,DRSC02563,-0.3,-0.2,,
bur,DRSC03163,-0.4,-0.7,,
Acsx3,DRSC14309,-0.3,-0.3,,
CG33267,DRSC09120,-0.2,-0.5,,
Tctp,DRSC15649,-0.2,-0.1,,
CG11037,DRSC11631,-0.3,-0.1,,
CG14983,DRSC08441,-0.3,-0.5,,
Upf2,DRSC18218,-0.3,-0.2,,
CG15120,DRSC06542,-0.1,-0.4,,
Taf2,DRSC11298,0.3,1.1,,
Adgf-B,DRSC10568,-0.2,-0.7,,
CG6034,DRSC10572,-0.1,-0.4,,
betaNACtes4,DRSC19801,-0.3,-1.2,,
CG12155,DRSC17826,0.2,0.3,,
fzr,DRSC18781,-0.4,0,,
